Reference: article PMC10281998

Columns and labels:
[1] = target: ZSCAN4 (mouse); test: co-IP; HEK293T cells over-expressing HA-Trim43a and Zscan4, or HA-Trim43a and Dux-Flag; ZSCAN4 or DUX-Flag pulled down, TRIM43A detected by western blot; lysis in Endo-IP buffer, antibody overnight at 4 °C, protein G Dynabeads
[2] = target: DUX-Flag (mouse); test: as above
[3] = target: HA-DUX (mouse); test: co-IP; mESCs (E14) over-expressing HA-Dux and Zfp352; HA and ZFP352 antibodies for pulldown and detection; lysis in Endo-IP buffer, antibody overnight at 4 °C, protein G Dynabeads

Binder | binding [1] | binding [2] | binding [3]
HA-TRIM43A (enzyme, UniProt Q3TL54 1-445) MESDNLQDPQEETLTCSICQSIFMNPVYLRCGHKFCEACLLLSQEDIKFPAYCPMCMQPFNQEYINDISLKKQVSIVRKKRLMKYLNSKEHKCVTHKAKKMIFCDKSKILLCHLCSDSQEHSGHTHCSIDVAVQEKMEELLKHMDSLWRRLKIQQNYVEIERRTTLWWLSVKLREEVIKRVYGKQCPPLCEERDQHIECLRHQSNTTLEELRKSEATIVHERNQLIEVYRELMTMSQRPYQELLVQDLDDLFRRSKLAAKLDMPQGMIPRLHAHSIPGLTARLNSFRVKISFKHSIMFGYTSVRPFDIRLLHESTSLDSAETHRVSWGKKSFSRGKYYWEVDLKDHEQWTVGVRKDPWLRGRSYAATPTDLFLLECLRKEDHYILITRIGGEHYIEKPVGQVGVFLDCEGGYVSFVDVAKSSLILSYSPGTFHCAVRPFFSAVYT | binds | binds | –
ZFP352 (protein, UniProt A2AML7 1-551) MEMAENTGASQPGPCNTQPSPVESSQLFSGQSSEMLTWKQTVMESASCSTQETTCTQNSTAYPGKAIGFHFGQPFENTSWNQQVVSAEQKISPAGLYHTQLNSAPQICLPPQKTTRVDTRETFYNEDYWMRTLNSDKTLLTQNTAMCENQRVTFDNHQIALYGSHAGQDPNVGHAFASEHDWTSYNSHMTTRNGGHLTLYESQMTAPSCSQTLHPNQIITSFSEQNYFEDQQSNLAVNNGFYGNQVILPNGYQAFYEPQMRANFDQTNDQMKSFSGQNVCKGQENLLSGECSLSGYQTSGYRCDQDLIVNPQVTSPIGGQPLSDFQTQTSSFDTALPGSKRTRPSAEDNLACPLETSPTSEETLYLGQMRTSVDQNFYSSQNGTPNIKESLDPQVTSFSLQAPYVGESSYPSCSPLIQKQPQKNSSASSLVQRQHPEMKLDFKTQSPVSQKDPSPLKLYFCTYKGCTKFYKRAYHLKEHQKKHTDKRKYGCDEPGCTWSFFRLCDLNRHKEKHNGERFYACPLCSTNYSRLLYLKKHLEKKHAQAQPTTAT | – | – | binds

Results are given in words; binding and its absence hold for the method and conditions named. Binding seen in cells or lysates may run through a third protein. Binding calls can cover weak binding; strength is not graded here. For part of these data: Sequences can lack the tags named with a protein.
